Measured values taken from publication PMC8164090.
These are yes or no findings as the source states them, for the method shown. In cells and extracts the contact can be indirect. Binding calls can cover weak binding; strength is not graded here. Tags and fused reporters may be left off the sequences shown.

Experiments:
Assay in all cases: co-IP; Grip-GFP IPs: purified MBP-Cnn fragments on anti-MBP high-capacity ProteinA beads; 65 µl extract of embryos expressing GFP-tagged Grip proteins, overnight at 4°C; five washes in PBST; blots with anti-GFP, anti-Grip71, anti-γ-tubulin; only the target purified
[1] = molecular target: MBP-tagged N-terminal fragment of Cnn-C lacking residues 1-77 (MBP-Cnn-C-N^Δ1-77) (Drosophila melanogaster)
[2] = molecular target: MBP-tagged N-terminal fragment of Cnn-T (MBP-Cnn-T-N) (Drosophila melanogaster)
[3] = molecular target: N-terminal fragment of Cnn-C with a phosphomimetic mutation at S186 (Cnn-C-N^S186) (Drosophila melanogaster)

Measured: binding

B1: Grip75^GCP4-sfGFP (protein, UniProt Q9VKU7 1-650)
chain: MIHDLLLACRSHNPEQLGIKAFNETTVIDQFIHPCEREIFMDIIKIIKVYQEVEQFTHSSGRKSDTHGELPDSLHGYYLLNLAKGIEMALEEYYAEIGRLEKYCLGNERNSLSYVYNALYAKFPLLVFMRNLITEIHVLNLRGCVLLHNLHQQCEHGDIQLEKAIKIIMKPVKNAFFSSLAHWLLFGVIDDVHSEFFIKFTPTDAVDGSSFSKSATCSLLSAEKNPEDYIWQYEVNMSQLPGFFSIVLAEKVLFVGQTVLVFKMGRNVKVKNKTDPLAAKLAELDSDDIYQLWSGRESEFFKMVVDLSNEDTINVFRLEKVIIDIKNYVSARLSEIAVNEVDLERQMGLIKDFFLLGRGEFYLEFCSQMVGTMETYREERFKNVTRSFELAATVTGITDDLDKFSLICQRSTSEPDDTSDFNFLQGLSLKYEYEWPLNLLFSPTTIERYNNIFRFLLIIRTYQYEIQRVWAKQTWRAKSAKDVPPNNKIITLRNYLMFFLNNMQYYIQVDVLESQFGILMNVIKSRSDFEVIQRAHTVFLANVLSHCFLLNESETQLNVTGSQNRNPIYGTLLKLFGICEKFAHMTQTKDPSDDLEDEVDQLNESFGVQIASLIQLLVDVKSASCLGPLSQLLLRLDFNCWFSASHNTSA
binds: all assays above
